The source of these data is paper doi:10.1101/2022.03.21.485049.

Sequences of proteins named here, by UniProt entry; tags and fusion partners are left off. Residues count along the entry.
UniProt Q9NZQ7, residues 19-290: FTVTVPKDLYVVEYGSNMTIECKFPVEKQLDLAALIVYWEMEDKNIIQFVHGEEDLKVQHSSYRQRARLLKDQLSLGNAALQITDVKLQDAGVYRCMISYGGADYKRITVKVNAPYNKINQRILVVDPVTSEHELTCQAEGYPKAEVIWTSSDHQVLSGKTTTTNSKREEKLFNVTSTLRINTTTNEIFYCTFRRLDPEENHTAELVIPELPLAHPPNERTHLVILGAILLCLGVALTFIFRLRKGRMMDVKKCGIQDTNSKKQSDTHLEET

No constants are given. Whether binding was seen depends on the method and setting. In cells and extracts the contact can be indirect. Some entries that bind do so weakly or less than the wild type.

Test [1] deals with T1, CMTM6 (human (endogenous in A375 and 2686 melanoma cells)) (UniProt Q9NX76).
T1 sequence: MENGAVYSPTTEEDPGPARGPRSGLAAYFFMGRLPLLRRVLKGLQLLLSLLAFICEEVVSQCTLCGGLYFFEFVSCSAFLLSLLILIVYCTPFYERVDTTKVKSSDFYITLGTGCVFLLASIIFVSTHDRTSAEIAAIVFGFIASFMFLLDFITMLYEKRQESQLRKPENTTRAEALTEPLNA
Kind of test: co-IP.

Test [2] concerns the target PD-L1 (human (endogenous in 2686 melanoma cells)) (UniProt Q9NZQ7). Nature of the test: co-IP.

Turning to PD-L1 (from UniProt Q9NZQ7 19-290), the binding result in test [1] is “binds”.

B1: CMTM6 (protein, UniProt Q9NX76 1-183)
chain: T1 sequence
In the case of B1, the binding result in test [2] is recorded as “binds”.
